# The supplement of paper PMC10849652
# Protein sequences, listed by entry. Tags and fused reporters are not part of them. Lines headed by an entry give the natural chain unless they say otherwise; changes in a name come on top.
# UniProt P49441: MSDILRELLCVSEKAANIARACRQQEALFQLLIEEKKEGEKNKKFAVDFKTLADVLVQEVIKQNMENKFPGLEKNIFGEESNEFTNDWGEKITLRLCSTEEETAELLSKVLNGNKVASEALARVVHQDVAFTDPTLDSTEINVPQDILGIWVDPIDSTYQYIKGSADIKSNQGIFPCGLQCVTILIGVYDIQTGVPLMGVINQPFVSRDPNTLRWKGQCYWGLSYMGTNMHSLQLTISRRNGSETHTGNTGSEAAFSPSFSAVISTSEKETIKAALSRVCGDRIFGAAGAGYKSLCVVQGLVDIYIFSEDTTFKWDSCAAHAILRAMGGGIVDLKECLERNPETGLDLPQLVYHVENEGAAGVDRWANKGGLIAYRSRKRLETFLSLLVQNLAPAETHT
# UniProt Q13418: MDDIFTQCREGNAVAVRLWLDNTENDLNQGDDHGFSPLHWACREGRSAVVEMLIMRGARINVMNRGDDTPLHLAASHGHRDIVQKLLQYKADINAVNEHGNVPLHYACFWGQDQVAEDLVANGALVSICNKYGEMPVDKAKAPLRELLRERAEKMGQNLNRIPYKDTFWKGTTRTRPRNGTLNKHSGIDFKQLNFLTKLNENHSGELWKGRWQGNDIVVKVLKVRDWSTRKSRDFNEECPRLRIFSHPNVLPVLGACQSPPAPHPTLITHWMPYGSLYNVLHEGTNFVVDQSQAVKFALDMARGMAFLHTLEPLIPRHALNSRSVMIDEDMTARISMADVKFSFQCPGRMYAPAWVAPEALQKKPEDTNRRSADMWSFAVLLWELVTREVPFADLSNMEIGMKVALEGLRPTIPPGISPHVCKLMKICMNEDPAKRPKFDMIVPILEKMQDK
# UniProt Q13907: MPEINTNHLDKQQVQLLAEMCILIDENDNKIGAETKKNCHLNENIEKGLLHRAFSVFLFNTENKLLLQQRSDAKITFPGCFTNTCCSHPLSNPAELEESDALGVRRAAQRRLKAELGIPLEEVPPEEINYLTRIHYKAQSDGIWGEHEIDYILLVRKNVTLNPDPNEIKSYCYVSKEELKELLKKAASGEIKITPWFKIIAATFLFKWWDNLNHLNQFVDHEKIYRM
# UniProt P17181: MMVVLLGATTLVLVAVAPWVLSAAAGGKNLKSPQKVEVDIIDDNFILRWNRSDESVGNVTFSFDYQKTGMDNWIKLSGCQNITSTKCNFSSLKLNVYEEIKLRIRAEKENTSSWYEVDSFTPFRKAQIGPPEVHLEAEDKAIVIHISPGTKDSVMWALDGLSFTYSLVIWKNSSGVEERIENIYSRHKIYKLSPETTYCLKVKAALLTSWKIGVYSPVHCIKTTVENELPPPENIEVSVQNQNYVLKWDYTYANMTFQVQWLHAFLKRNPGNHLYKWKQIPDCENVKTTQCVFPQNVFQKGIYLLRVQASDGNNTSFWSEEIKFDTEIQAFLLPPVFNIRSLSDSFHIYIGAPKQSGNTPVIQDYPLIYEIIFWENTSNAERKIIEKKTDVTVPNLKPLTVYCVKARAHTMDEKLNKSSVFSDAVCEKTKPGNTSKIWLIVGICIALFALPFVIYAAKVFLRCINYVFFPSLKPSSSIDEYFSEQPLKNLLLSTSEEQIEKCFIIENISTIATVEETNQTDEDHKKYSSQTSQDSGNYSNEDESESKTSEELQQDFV
# UniProt Q8IWB1: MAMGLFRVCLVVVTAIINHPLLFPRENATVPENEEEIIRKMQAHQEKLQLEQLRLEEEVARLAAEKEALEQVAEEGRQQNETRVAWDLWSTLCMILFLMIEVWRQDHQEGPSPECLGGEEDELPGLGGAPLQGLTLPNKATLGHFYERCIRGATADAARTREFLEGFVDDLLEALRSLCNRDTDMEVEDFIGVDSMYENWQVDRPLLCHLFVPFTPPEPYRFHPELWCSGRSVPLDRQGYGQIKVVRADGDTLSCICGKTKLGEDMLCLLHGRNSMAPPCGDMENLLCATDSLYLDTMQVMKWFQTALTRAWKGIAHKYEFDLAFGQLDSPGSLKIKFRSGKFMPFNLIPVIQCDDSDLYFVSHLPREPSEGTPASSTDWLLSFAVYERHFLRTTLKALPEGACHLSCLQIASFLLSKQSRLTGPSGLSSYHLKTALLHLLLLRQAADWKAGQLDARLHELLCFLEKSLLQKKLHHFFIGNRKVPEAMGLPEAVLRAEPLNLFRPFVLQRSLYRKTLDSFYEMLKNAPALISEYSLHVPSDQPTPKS
# UniProt Q9NWZ3, whole entry, looked up: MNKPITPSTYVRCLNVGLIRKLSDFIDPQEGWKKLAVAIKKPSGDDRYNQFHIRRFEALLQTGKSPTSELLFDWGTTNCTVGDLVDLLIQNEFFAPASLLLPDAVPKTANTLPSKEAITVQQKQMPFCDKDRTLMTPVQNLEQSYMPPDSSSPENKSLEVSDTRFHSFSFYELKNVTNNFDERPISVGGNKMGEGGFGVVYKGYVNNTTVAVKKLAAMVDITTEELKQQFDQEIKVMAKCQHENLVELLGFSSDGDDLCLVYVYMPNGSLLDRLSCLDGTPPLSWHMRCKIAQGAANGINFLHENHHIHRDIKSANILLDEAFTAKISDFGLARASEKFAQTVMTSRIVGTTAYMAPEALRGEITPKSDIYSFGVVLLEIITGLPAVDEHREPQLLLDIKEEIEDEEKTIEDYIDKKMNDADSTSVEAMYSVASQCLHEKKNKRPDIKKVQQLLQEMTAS
# UniProt Q9H0C8: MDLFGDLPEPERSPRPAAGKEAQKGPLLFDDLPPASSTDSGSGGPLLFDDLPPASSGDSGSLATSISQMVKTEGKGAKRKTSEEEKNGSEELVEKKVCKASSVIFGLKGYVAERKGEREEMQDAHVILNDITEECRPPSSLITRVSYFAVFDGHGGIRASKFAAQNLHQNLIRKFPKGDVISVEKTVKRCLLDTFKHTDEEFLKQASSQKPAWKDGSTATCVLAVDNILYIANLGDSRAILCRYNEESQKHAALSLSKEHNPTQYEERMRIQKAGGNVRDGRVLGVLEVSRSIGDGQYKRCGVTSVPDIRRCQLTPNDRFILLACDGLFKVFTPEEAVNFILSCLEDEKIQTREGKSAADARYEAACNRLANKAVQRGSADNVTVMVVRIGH
# UniProt Q01628, whole entry, looked up: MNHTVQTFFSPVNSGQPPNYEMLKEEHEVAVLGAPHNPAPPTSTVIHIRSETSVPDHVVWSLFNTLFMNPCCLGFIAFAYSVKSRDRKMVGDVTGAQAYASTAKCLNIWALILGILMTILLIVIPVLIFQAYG
# UniProt Q13422: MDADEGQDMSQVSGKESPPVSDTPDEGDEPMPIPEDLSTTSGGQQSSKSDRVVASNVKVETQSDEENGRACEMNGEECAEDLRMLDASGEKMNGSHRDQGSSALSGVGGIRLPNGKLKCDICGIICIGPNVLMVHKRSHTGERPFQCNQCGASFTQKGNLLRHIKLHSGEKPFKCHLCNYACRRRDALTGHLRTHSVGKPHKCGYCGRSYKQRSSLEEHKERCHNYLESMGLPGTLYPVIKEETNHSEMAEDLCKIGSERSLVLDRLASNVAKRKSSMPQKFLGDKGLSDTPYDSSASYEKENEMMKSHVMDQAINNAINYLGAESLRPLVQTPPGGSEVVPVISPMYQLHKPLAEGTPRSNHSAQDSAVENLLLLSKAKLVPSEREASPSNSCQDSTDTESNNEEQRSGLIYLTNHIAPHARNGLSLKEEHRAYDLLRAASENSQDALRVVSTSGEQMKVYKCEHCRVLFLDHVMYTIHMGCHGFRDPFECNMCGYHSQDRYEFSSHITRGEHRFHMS
# UniProt Q9Y5U9: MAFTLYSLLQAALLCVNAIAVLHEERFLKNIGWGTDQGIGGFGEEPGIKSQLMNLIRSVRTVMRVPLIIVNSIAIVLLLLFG
# UniProt Q6UWB1, whole entry, looked up: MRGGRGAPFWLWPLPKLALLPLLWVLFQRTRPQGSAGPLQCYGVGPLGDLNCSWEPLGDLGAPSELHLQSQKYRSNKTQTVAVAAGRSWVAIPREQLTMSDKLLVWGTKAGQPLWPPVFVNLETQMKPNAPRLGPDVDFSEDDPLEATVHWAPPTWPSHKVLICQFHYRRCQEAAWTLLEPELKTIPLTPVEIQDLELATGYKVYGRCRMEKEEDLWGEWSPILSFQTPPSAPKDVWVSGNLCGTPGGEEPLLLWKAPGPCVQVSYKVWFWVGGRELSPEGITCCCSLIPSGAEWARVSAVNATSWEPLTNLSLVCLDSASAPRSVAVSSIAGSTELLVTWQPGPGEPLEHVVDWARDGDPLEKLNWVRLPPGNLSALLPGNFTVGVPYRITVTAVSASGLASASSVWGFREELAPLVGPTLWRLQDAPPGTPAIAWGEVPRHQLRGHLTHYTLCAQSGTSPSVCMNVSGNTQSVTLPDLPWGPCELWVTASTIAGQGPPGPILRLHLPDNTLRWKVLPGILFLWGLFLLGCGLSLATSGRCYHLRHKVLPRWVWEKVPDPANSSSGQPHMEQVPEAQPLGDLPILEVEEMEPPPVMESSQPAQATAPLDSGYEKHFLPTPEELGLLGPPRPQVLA
# UniProt Q13123, whole entry, looked up: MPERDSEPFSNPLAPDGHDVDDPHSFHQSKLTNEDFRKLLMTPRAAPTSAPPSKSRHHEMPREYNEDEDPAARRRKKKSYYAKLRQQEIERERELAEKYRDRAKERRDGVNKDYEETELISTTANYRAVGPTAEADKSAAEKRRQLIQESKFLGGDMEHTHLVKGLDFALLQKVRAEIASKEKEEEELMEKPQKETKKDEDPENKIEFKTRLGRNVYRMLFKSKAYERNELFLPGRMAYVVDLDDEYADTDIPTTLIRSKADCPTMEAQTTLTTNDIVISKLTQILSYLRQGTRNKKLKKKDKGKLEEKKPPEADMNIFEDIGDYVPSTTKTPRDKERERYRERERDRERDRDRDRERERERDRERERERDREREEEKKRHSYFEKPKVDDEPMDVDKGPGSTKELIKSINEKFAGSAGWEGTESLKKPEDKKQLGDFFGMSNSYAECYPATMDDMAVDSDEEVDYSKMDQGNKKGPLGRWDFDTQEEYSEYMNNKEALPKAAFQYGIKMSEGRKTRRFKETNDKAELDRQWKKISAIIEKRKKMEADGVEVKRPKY
# UniProt Q969R8: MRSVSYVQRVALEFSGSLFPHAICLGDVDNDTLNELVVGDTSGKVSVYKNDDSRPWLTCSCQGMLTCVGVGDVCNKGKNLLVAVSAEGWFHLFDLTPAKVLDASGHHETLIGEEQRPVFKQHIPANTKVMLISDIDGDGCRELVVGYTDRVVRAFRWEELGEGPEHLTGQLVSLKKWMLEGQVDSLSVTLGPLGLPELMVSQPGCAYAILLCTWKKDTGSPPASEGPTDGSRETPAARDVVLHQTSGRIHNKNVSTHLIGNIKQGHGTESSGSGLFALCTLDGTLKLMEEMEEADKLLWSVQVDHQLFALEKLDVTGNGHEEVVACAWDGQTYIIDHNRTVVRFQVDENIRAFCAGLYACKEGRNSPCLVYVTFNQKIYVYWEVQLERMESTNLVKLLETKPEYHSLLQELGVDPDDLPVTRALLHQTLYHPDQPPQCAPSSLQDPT
# UniProt P32019: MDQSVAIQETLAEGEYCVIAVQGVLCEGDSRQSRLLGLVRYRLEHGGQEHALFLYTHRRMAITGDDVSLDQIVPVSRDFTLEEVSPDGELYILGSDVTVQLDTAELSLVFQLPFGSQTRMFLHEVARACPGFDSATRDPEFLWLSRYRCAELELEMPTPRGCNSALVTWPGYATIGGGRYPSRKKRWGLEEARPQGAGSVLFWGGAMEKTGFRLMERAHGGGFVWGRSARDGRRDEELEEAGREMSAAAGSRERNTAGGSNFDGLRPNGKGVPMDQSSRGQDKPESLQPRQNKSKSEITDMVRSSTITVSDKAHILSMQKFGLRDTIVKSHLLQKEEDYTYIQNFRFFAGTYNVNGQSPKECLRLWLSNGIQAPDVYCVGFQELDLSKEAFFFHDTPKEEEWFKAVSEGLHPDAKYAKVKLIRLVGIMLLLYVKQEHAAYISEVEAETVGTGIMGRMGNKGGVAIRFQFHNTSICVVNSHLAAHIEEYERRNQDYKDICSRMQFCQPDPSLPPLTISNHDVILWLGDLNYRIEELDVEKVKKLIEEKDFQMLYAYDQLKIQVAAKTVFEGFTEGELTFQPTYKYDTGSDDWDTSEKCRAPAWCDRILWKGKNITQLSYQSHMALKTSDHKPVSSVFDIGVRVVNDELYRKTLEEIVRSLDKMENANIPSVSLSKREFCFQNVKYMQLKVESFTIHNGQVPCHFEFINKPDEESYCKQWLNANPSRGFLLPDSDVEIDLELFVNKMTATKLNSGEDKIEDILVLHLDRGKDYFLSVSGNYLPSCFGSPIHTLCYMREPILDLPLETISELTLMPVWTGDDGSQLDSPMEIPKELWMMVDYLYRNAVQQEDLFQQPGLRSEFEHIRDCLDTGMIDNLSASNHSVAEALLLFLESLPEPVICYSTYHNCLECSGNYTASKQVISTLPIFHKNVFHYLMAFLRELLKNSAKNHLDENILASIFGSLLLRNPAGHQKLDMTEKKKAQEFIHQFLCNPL
# The other results are listed elsewhere or left out.
# How the values were obtained:
# Test in all cases: log2 fold change, soluble protein after heating vs DMSO (PISA); higher = thermal stabilisation; K562 cells, 10 uM, 30 min; active = over 0.2 and 3.5 SD of the protein, either way, in both replicates (recomputed)
# [1] = compound: CC1=C(C=C(C=C1)NC(=O)C2=CC(=CC=C2)C(C)(C)C#N)NC3=CC4=C(C=C3)N=CN(C4=O)C
# In short: (§1)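 Aliquots of K562 cells (2×10^6 cells/mL) treated with 10 μM compound for 30 min were heated for 3 min over 48°C-58°C. After pooling and extraction in PBS with 0.5% NP-40 at 4°C, soluble protein from a 21,000xg, 90 min spin was quantified by TMTpro 16plex LC-MS/MS with channel sums equalised. Thermal stability is expressed against control samples, from duplicates, as a log2 fold change.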
# [2] = compound: CC1=C(C=C(C=C1)NC(=O)C2=CC(=CC=C2)N(C)C)NC(=O)C3=CC=C(C=C3)O
# In short: as §1
# [3] = compound: CC1=CC=C(C=C1)SC2=C3C=C(SC3=CN=C2)C(=O)N
# In short: as §1
# [4] = compound: CC1=NC(=CC=C1)C2=C(N=C(N2)C(C)(C)C)C3=CC4=NC=CN=C4C=C3
# In short: as §1
# Nexturastat A = compound: CCCCN(Cc1ccc(C(=O)NO)cc1)C(=O)Nc1ccccc1 [Nexturastat A]
# In short: as §1
# vemurafenib = compound: CCCS(=O)(=O)Nc1ccc(F)c(C(=O)c2c[nH]c3ncc(-c4ccc(Cl)cc4)cc23)c1F [vemurafenib]
# In short: as §1
# [5] = compound: CCCS(=O)(=O)Nc1ccc(F)c(C(=O)c2c[nH]c3ncc(Cl)cc23)c1F
# In short: as §1
# [6] = compound: CCCc1cc(C)[nH]c(=O)c1CNC(=O)c1cc(-c2ccnc(N3CCN(C)CC3)c2)cc2c1cnn2C(C)C
# In short: as §1
# givinostat = compound: CCN(CC)Cc1ccc2cc(COC(=O)Nc3ccc(C(=O)NO)cc3)ccc2c1 [givinostat]
# In short: as §1
# barasertib = compound: CCN(CCCOc1ccc2c(Nc3cc(CC(=O)Nc4cccc(F)c4)[nH]n3)ncnc2c1)CCOP(=O)(O)O [barasertib]
# In short: as §1
# [7] = compound: CC[C@@H]1C(=O)N(C)c2cnc(Nc3ccc(C(=O)NC4CCN(C)CC4)cc3OC)nc2N1C1CCCC1
# In short: as §1
# volasertib = compound: CC[C@@H]1C(=O)N(C)c2cnc(Nc3ccc(C(=O)N[C@H]4CC[C@H](N5CCN(CC6CC6)CC5)CC4)cc3OC)nc2N1C(C)C [volasertib]
# In short: as §1
# [8] = compound: CC[C@H](C)N1C=C(C2=C(C=C(C=C21)C3=CN=C(C=C3)N4CCNCC4)C(=O)NCC5=C(C=C(NC5=O)C)C)C
# In short: as §1
# epoxomicin = compound: CC[C@H](C)[C@@H](C(=O)N[C@@H]([C@@H](C)O)C(=O)N[C@@H](CC(C)C)C(=O)[C@]1(CO1)C)NC(=O)[C@H]([C@@H](C)CC)N(C)C(=O)C [epoxomicin]
# In short: as §1
# [9] = compound: CCn1cc(-c2ccnc3[nH]c(-c4cccc(CN(C)C)c4)cc23)c(-c2ccc(NC(=O)N(C)C)cc2)n1
# In short: as §1
# [10] = compound: CN(C)CC(=O)Nc1ccc2[nH]c(=O)c3ccccc3c2c1
# In short: as §1
# [11] = compound: CN1C2=C(C3=C1C(=O)N(N=C3)CC4=CC(=CC=C4)N)SC(=C2)S(=O)C
# In short: as §1
# [12] = compound: CN1CCC(CNc2ccc3ncc(-c4cccc(OC(F)(F)F)c4)n3n2)CC1
# In short: as §1
# [13] = compound: CCn1c(C(=O)N(C2CC2)C2CC2)cc2c3c(ncn3C)c(Nc3cc(C)n(C)n3)nc21
# In short: as §1
# rosiglitazone = compound: CN(CCOC1=CC=C(C=C1)C[C@H]2C(=O)NC(=O)S2)C3=CC=CC=N3 (racemic) [rosiglitazone]
# In short: as §1
Target,log2 fold change [1],log2 fold change [2],log2 fold change [3],log2 fold change [4],log2 fold change (Nexturastat A),log2 fold change (vemurafenib),log2 fold change [5],log2 fold change [6],log2 fold change (givinostat),log2 fold change (barasertib),log2 fold change [7],log2 fold change (volasertib),log2 fold change [8],log2 fold change (epoxomicin),log2 fold change [9],log2 fold change [10],log2 fold change [11],log2 fold change [12],log2 fold change [13],log2 fold change (rosiglitazone)
INPP1 (UniProt P49441),inactive: 0.039,inactive: 0.016,inactive: 0.054,inactive: 0.052,inactive: 0.061,inactive: 0.031,inactive: -0.071,inactive: 0.079,inactive: -0.032,inactive: -0.03,inactive: 0.011,inactive: -0.042,inactive: 0.028,inactive: 0.052,inactive: -0.011,inactive: -0.047,inactive: 0.014,active: -0.296,–,–
ILK (UniProt Q13418),inactive: -0.179,inactive: -0.053,inactive: 0.025,inactive: -0.208,inactive: 0.135,inactive: -0.075,inactive: -0.005,inactive: -0.031,inactive: 0.041,inactive: 0.019,inactive: 0.033,inactive: 0.064,inactive: 0.035,inactive: -0.04,inactive: -0.052,inactive: -0.006,inactive: 0.125,inactive: -0.191,–,–
INTS5 (UniProt Q6P9B9),inactive: 0.091,inactive: -0.061,inactive: 0.026,inactive: 0.042,inactive: 0.01,inactive: 0.087,inactive: 0.074,inactive: 0.122,inactive: 0.038,inactive: 0.015,–,inactive: -0.152,inactive: 0.049,inactive: 0.052,–,inactive: -0.003,inactive: -0.133,–,–,–
INTS2 (UniProt Q9H0H0),inactive: 0.038,inactive: 0.067,inactive: -0.092,inactive: 0.052,inactive: -0.066,inactive: -0.035,inactive: -0.137,inactive: 0.097,inactive: 0.018,–,inactive: -0.14,inactive: 0.068,–,inactive: 0.162,inactive: -0.051,inactive: -0.057,–,inactive: 0.041,inactive: -0.085,–
ILF3 isoform 7 (UniProt Q12906),inactive: 0.028,inactive: -0.068,inactive: -0.087,inactive: -0.036,inactive: 0.146,inactive: -0.036,inactive: -0.1,inactive: 0.102,inactive: -0.017,inactive: -0.125,inactive: 0.348,inactive: 0.356,inactive: -0.021,inactive: -0.185,inactive: 0.135,inactive: -0.101,inactive: 0.146,inactive: 0.231,–,–
IDI1 isoform 2 (UniProt Q13907),inactive: -0.017,inactive: -0.007,inactive: -0.015,inactive: 0.003,inactive: -0.082,inactive: 0.005,inactive: -0.029,inactive: -0.185,inactive: -0.219,inactive: 0.024,inactive: 0.055,inactive: 0.127,inactive: -0.05,inactive: -0.079,inactive: -0.081,inactive: -0.065,inactive: -0.004,inactive: -0.005,–,–
IFNAR1 (UniProt P17181),inactive: -0.021,inactive: 0.049,inactive: 0.064,inactive: -0.33,inactive: -0.152,inactive: -0.002,inactive: 0.001,inactive: 0.102,–,inactive: -0.185,–,inactive: -0.243,inactive: 0.016,inactive: -0.088,inactive: -0.035,inactive: -0.003,inactive: -0.2,inactive: -0.083,–,inactive: 0.066
IMMT isoform 2 (UniProt Q16891),inactive: 0.053,inactive: 0.074,inactive: -0.05,inactive: 0.002,inactive: -0.155,inactive: -0.006,inactive: 0.018,inactive: 0.325,inactive: 0.045,inactive: 0.081,inactive: -0.043,inactive: -0.046,inactive: -0.002,inactive: -0.052,inactive: -0.031,inactive: 0.086,inactive: 0.067,inactive: 0.249,–,–
ITPRIP (UniProt Q8IWB1),inactive: -0.044,inactive: 0.007,inactive: -0.01,inactive: 0.081,inactive: 0.005,inactive: 0.02,inactive: 0.061,inactive: -0.099,inactive: 0.007,inactive: 0.023,inactive: -0.037,inactive: -0.148,inactive: -0.012,inactive: -0.019,inactive: 0.031,inactive: 0,inactive: -0.111,inactive: -0.017,–,–
IRAK4 (UniProt Q9NWZ3),inactive: 0.006,inactive: -0.039,inactive: 0,inactive: 0.03,inactive: 0.009,inactive: 0.041,inactive: 0.068,inactive: -0.003,inactive: 0.062,inactive: 0.024,inactive: -0.138,inactive: -0.299,inactive: 0.048,inactive: 0.038,inactive: -0.033,inactive: 0.061,inactive: 0.029,inactive: 0.013,–,–
ILKAP (UniProt Q9H0C8),inactive: -0.026,inactive: -0.117,inactive: 0.072,inactive: 0.168,inactive: 0,inactive: 0.08,inactive: 0.082,inactive: 0.063,inactive: 0.071,inactive: 0.07,inactive: -0.135,active: -0.343,inactive: 0.127,inactive: 0.077,inactive: -0.052,inactive: 0.086,inactive: -0.085,inactive: -0.064,–,–
IFITM3 (UniProt Q01628),inactive: -0.058,inactive: 0.074,inactive: 0.148,inactive: -0.059,active: -0.425,inactive: 0.177,inactive: 0.2,inactive: 0.218,inactive: -0.036,inactive: 0.051,inactive: -0.004,inactive: 0.033,inactive: 0.023,inactive: -0.007,–,inactive: 0.175,inactive: -0.015,–,–,–
IKZF1 (UniProt Q13422),inactive: 0.144,inactive: 0.036,inactive: -0.007,inactive: 0.041,inactive: -0.006,inactive: 0.044,inactive: 0.034,inactive: 0.177,inactive: -0.018,inactive: -0.052,inactive: 0.079,inactive: -0.067,inactive: 0.053,inactive: -0.052,inactive: -0.048,inactive: 0.024,inactive: 0.051,inactive: -0.239,–,–
IER3IP1 (UniProt Q9Y5U9),inactive: -0.06,inactive: 0.003,inactive: 0.008,inactive: -0.322,inactive: 0.058,inactive: -0.054,inactive: 0.134,inactive: 0.158,inactive: 0.036,inactive: 0.007,inactive: -0.013,inactive: -0.296,–,inactive: -0.078,inactive: 0.019,inactive: 0.04,inactive: 0.079,inactive: 0.107,inactive: -0.224,inactive: 0.049
IL27RA (UniProt Q6UWB1),inactive: -0.048,inactive: -0.048,inactive: -0.006,inactive: -0.018,inactive: 0.027,inactive: -0.025,inactive: -0.091,inactive: -0.008,inactive: 0.006,inactive: 0.011,inactive: -0.12,inactive: -0.298,inactive: -0.049,inactive: -0.178,–,inactive: -0.098,inactive: -0.219,–,–,–
IK (UniProt Q13123),inactive: 0.032,inactive: 0.039,inactive: -0.035,inactive: -0.026,inactive: 0.093,inactive: 0.086,inactive: -0.002,inactive: 0.036,inactive: 0.021,inactive: 0.047,inactive: -0.136,active: -0.366,inactive: 0.02,inactive: 0.125,inactive: 0.069,inactive: -0.034,inactive: 0.145,inactive: -0.035,–,–
ITFG2 (UniProt Q969R8),inactive: -0.177,inactive: -0.013,inactive: -0.002,inactive: 0.003,inactive: 0.168,inactive: -0.006,inactive: 0.029,inactive: -0.001,inactive: -0.138,inactive: 0.094,–,inactive: -0.151,inactive: 0.045,inactive: 0.236,–,inactive: -0.011,inactive: -0.158,–,inactive: -0.017,inactive: -0.198
INPP5B (UniProt P32019),inactive: 0.02,inactive: -0.06,inactive: -0.071,inactive: 0.007,inactive: 0.096,inactive: -0.006,inactive: -0.004,inactive: 0.062,inactive: 0.105,inactive: 0.069,inactive: 0.021,inactive: -0.04,inactive: 0.002,inactive: 0.007,inactive: 0.031,inactive: 0.057,inactive: 0.12,inactive: 0.003,–,–

# Part of the list above, with bars between the fields.
Target | log2 fold change [1] | log2 fold change [2] | log2 fold change [3] | log2 fold change [4] | log2 fold change (Nexturastat A) | log2 fold change (vemurafenib) | log2 fold change [5] | log2 fold change [6] | log2 fold change (givinostat) | log2 fold change (barasertib) | log2 fold change [7] | log2 fold change (volasertib) | log2 fold change [8] | log2 fold change (epoxomicin) | log2 fold change [9] | log2 fold change [10] | log2 fold change [11] | log2 fold change [12] | log2 fold change [13] | log2 fold change (rosiglitazone)
INPP1 (UniProt P49441) | inactive: 0.039 | inactive: 0.016 | inactive: 0.054 | inactive: 0.052 | inactive: 0.061 | inactive: 0.031 | inactive: -0.071 | inactive: 0.079 | inactive: -0.032 | inactive: -0.03 | inactive: 0.011 | inactive: -0.042 | inactive: 0.028 | inactive: 0.052 | inactive: -0.011 | inactive: -0.047 | inactive: 0.014 | active: -0.296 | – | –
ILK (UniProt Q13418) | inactive: -0.179 | inactive: -0.053 | inactive: 0.025 | inactive: -0.208 | inactive: 0.135 | inactive: -0.075 | inactive: -0.005 | inactive: -0.031 | inactive: 0.041 | inactive: 0.019 | inactive: 0.033 | inactive: 0.064 | inactive: 0.035 | inactive: -0.04 | inactive: -0.052 | inactive: -0.006 | inactive: 0.125 | inactive: -0.191 | – | –
ITPRIP (UniProt Q8IWB1) | inactive: -0.044 | inactive: 0.007 | inactive: -0.01 | inactive: 0.081 | inactive: 0.005 | inactive: 0.02 | inactive: 0.061 | inactive: -0.099 | inactive: 0.007 | inactive: 0.023 | inactive: -0.037 | inactive: -0.148 | inactive: -0.012 | inactive: -0.019 | inactive: 0.031 | inactive: 0 | inactive: -0.111 | inactive: -0.017 | – | –
ILKAP (UniProt Q9H0C8) | inactive: -0.026 | inactive: -0.117 | inactive: 0.072 | inactive: 0.168 | inactive: 0 | inactive: 0.08 | inactive: 0.082 | inactive: 0.063 | inactive: 0.071 | inactive: 0.07 | inactive: -0.135 | active: -0.343 | inactive: 0.127 | inactive: 0.077 | inactive: -0.052 | inactive: 0.086 | inactive: -0.085 | inactive: -0.064 | – | –
